This is one part of the list.
What was measured:
Assay in all cases: log2 fold change, soluble protein after heating vs DMSO (PISA); higher = thermal stabilisation; K562 cells, 10 uM, 30 min; active = over 0.2 and 3.5 SD of the protein, either way, in both replicates (recomputed)
saracatinib = compound: CN1CCN(CCOc2cc(OC3CCOCC3)c3c(Nc4c(Cl)ccc5c4OCO5)ncnc3c2)CC1 [saracatinib]
Method in brief: (§1)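 For each measurement, 10 μM compound was applied for 30 min to K562 cells at 2×10^6 cells/mL. Aliquots were heated for 3 min across 48°C-58°C, pooled, and extracted in PBS with 0.5% NP-40 at 4°C; the supernatant after 21,000xg for 90 min was soluble protein. This was quantified by TMTpro 16plex LC-MS/MS with channel sums equalised, and thermal stability was reported relative to control samples from duplicates, on a log2 fold-change scale.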

Chains of the proteins cited; added tags and fusions are not shown. Lines headed by an entry give the natural chain unless they say otherwise; changes in a name come on top.
UniProt Q9NYP9: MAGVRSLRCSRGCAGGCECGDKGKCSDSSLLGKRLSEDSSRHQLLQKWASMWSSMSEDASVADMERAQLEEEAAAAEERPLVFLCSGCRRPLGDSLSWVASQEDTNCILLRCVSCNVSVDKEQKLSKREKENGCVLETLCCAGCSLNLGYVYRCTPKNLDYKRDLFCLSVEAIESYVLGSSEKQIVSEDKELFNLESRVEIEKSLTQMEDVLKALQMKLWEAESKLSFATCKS
UniProt P29372, whole entry, looked up: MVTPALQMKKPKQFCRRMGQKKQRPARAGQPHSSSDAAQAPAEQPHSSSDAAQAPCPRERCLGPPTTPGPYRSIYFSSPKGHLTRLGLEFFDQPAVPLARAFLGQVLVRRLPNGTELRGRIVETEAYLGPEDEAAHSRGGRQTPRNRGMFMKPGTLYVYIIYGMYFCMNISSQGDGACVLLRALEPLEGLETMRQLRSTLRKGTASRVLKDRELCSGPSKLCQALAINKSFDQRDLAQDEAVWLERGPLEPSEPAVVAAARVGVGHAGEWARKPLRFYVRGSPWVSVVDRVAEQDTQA
UniProt Q9NV56, whole entry, looked up: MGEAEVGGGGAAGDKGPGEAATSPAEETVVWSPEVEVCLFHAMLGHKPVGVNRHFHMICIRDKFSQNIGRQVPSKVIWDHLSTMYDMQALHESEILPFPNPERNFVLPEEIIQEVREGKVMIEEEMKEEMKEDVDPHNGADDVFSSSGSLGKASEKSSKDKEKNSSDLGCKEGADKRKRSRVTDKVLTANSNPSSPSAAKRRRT
UniProt Q9NZW5: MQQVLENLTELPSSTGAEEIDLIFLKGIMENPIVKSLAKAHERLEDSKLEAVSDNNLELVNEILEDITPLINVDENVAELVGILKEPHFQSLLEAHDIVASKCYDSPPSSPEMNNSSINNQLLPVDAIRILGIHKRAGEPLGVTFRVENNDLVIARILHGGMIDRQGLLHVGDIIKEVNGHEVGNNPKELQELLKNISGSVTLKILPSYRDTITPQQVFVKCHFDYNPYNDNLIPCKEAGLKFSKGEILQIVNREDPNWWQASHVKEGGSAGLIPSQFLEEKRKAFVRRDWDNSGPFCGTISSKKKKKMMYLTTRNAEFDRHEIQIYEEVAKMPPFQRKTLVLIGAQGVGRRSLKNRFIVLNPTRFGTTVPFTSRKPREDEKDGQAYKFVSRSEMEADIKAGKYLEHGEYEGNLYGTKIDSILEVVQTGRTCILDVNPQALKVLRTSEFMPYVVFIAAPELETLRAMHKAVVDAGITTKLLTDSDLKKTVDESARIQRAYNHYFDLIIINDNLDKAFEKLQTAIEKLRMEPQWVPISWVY
UniProt O95297: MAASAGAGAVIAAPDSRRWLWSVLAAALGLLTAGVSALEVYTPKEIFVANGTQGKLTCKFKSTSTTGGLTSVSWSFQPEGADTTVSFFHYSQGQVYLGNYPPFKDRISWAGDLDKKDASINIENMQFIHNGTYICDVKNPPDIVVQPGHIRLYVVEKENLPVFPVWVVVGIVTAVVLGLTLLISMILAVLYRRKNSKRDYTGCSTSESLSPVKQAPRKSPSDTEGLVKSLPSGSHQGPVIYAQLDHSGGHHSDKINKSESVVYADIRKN
UniProt Q7L9L4: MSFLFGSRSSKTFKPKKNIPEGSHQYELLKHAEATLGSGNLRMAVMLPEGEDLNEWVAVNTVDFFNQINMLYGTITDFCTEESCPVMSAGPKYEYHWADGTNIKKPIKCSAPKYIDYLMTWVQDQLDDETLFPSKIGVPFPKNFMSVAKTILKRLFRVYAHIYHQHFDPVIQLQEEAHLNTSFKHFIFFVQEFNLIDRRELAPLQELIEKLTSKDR
UniProt Q8N3F8: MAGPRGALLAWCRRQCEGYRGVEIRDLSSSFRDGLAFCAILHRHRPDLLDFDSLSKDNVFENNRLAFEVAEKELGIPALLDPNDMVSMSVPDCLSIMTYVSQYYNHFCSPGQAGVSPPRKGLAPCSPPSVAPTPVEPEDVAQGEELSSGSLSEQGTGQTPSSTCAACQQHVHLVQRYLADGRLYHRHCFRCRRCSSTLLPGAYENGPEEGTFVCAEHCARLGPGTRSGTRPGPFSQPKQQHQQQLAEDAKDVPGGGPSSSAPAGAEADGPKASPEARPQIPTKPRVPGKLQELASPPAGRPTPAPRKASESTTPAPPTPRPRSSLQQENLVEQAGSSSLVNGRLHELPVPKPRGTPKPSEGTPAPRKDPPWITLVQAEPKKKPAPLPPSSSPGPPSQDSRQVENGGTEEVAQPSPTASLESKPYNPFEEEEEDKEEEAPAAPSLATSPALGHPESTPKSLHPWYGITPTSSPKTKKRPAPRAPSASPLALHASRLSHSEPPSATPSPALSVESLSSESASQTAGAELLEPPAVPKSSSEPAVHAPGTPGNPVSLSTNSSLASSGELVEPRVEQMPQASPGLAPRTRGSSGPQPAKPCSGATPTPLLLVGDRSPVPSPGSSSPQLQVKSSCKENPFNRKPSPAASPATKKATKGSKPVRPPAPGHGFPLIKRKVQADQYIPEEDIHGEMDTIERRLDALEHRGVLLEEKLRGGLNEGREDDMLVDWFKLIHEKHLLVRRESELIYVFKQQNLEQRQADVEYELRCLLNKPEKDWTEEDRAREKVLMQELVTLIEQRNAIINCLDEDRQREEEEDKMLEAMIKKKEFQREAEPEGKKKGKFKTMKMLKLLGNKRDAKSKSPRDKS
UniProt P22033: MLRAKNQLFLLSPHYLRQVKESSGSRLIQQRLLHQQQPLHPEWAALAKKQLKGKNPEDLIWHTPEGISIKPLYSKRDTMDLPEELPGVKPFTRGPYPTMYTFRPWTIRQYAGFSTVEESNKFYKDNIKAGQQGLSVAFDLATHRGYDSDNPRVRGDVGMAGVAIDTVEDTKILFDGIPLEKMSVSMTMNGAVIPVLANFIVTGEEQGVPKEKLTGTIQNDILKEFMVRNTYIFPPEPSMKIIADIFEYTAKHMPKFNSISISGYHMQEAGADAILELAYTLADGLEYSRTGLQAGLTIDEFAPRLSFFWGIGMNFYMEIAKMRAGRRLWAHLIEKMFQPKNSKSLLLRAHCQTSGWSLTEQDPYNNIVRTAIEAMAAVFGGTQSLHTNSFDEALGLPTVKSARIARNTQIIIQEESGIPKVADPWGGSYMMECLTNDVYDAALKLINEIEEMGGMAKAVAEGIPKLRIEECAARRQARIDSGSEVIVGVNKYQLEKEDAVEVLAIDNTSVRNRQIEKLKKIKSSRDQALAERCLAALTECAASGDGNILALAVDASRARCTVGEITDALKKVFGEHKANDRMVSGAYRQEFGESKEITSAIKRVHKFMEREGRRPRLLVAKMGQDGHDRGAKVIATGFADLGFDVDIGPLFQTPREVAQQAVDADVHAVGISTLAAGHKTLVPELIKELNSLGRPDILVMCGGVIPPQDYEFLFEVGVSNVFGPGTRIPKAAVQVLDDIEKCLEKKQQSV
UniProt Q96EN8: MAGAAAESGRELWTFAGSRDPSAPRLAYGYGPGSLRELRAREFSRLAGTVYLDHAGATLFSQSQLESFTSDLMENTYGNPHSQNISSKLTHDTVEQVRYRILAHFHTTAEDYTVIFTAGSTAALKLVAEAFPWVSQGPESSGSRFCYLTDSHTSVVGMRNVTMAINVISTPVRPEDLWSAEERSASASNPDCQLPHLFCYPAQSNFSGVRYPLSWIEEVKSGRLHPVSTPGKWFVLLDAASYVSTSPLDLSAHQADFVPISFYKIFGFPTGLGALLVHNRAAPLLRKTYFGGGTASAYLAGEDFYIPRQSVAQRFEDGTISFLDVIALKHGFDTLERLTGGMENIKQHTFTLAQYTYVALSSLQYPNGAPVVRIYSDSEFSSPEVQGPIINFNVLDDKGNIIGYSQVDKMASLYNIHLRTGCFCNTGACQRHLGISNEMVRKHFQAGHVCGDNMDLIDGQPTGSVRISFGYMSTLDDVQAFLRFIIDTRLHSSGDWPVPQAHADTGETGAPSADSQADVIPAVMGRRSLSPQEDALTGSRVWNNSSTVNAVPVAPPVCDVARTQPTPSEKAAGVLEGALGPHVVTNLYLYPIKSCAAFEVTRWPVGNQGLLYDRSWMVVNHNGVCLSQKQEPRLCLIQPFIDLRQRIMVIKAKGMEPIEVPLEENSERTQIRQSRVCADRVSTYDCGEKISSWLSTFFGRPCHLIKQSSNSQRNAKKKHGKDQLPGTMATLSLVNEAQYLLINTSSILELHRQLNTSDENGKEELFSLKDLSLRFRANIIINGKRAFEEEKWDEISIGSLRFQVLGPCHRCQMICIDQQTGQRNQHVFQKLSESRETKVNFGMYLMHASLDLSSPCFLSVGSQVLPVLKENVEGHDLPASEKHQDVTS
UniProt Q96EY8: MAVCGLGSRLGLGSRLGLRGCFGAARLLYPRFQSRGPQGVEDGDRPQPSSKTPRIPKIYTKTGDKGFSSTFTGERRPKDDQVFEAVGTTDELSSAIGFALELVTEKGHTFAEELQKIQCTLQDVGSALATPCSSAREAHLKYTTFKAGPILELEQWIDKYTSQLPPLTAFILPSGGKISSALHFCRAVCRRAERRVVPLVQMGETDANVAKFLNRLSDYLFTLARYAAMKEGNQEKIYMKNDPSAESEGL
UniProt Q8TAP9: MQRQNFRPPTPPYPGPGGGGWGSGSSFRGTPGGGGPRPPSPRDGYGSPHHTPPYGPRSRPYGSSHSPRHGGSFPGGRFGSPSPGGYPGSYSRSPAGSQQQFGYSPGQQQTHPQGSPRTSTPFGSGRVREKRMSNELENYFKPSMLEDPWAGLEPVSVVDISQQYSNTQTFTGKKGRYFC
UniProt Q13724: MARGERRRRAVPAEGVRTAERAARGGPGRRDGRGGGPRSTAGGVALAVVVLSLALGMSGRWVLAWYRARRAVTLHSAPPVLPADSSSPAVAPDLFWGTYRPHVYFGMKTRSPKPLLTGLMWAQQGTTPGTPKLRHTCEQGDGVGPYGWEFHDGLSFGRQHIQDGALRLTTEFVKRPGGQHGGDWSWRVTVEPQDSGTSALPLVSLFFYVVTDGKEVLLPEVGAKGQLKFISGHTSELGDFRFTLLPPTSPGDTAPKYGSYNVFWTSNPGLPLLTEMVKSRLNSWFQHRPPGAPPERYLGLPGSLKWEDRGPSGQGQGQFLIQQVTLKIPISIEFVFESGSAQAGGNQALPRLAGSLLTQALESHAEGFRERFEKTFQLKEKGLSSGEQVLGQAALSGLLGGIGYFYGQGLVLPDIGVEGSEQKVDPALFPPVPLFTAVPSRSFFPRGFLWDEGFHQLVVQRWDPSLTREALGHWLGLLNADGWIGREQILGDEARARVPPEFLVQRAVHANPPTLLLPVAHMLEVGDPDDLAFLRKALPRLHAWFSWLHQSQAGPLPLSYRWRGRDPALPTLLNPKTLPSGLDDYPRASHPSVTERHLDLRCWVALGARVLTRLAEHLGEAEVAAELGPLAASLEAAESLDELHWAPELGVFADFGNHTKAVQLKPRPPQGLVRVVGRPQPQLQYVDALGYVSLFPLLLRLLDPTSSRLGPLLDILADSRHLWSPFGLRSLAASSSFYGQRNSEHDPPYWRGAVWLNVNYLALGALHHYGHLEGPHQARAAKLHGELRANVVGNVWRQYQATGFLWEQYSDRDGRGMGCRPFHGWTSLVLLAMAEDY
UniProt P34949: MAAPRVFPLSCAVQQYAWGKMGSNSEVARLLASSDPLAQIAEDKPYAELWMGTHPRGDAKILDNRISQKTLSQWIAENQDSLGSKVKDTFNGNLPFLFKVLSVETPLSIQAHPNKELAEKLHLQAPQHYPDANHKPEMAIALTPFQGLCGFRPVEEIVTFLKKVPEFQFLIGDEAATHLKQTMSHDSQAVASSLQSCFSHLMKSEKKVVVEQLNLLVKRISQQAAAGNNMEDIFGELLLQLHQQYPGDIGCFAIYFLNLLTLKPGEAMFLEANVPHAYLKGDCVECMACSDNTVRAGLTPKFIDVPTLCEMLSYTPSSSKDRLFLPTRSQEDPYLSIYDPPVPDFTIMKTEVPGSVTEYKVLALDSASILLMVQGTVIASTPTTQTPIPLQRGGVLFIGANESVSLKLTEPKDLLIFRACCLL
UniProt O95822: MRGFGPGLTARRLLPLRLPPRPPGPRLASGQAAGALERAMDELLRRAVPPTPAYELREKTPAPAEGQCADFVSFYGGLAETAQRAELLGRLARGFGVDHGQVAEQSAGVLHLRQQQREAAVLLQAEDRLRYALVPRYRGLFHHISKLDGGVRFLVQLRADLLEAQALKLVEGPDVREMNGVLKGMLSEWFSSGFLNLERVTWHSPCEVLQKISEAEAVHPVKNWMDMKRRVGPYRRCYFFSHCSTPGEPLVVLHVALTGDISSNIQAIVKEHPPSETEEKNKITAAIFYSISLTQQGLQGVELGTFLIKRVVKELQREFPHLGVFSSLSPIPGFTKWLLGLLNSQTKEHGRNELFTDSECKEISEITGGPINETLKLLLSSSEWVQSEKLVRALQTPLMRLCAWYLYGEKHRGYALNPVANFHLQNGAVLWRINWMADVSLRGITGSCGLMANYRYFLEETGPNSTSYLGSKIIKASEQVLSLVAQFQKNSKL

sotrastaurin = compound: CN1CCN(c2nc(C3=C(c4c[nH]c5ccccc45)C(=O)NC3=O)c3ccccc3n2)CC1 [sotrastaurin]
Method in brief: as §1

alvocidib = compound: CN1CC[C@H](c2c(O)cc(O)c3c(=O)cc(-c4ccccc4Cl)oc23)[C@H](O)C1 [alvocidib]
Method in brief: as §1

Tubastatin A = compound: CN1CCc2c(c3ccccc3n2Cc2ccc(C(=O)NO)cc2)C1 [Tubastatin A]
Method in brief: as §1

[1] = compound: CNC(=O)C1=CC=CC=C1NC2=NC(=NC=C2Cl)NC3=C(C=C(C=C3)N4CCOCC4)OC
Method in brief: as §1

defactinib = compound: CNC(=O)c1ccc(Nc2ncc(C(F)(F)F)c(NCc3nccnc3N(C)S(C)(=O)=O)n2)cc1 [defactinib]
Method in brief: as §1

rucaparib = compound: CNCc1ccc(-c2[nH]c3cc(F)cc4c3c2CCNC4=O)cc1 [rucaparib]
Method in brief: as §1

[2] = compound: CNc1nc(-c2ccc3c(N)n[nH]c3c2)cc(N2C[C@@H](C(=O)NC3CCCCC3)CC[C@H]2C)n1
Method in brief: as §1

encorafenib = compound: COC(=O)N[C@@H](C)CNc1nccc(-c2cn(C(C)C)nc2-c2cc(Cl)cc(NS(C)(=O)=O)c2F)n1 [encorafenib]
Method in brief: as §1

[3] = compound: COC(=O)[C@H](CCSC)NC(=O)C1=C(C=C(C=C1)NC[C@H](CS)N)C2=CC=CC=C2
Method in brief: as §1

Measured: log2 fold change

MRPL45 (UniProt Q9BRJ2)
inactive: saracatinib -0.122 | sotrastaurin -0.076 | alvocidib 0.001 | Tubastatin A 0.056 | [1] -0.012 | defactinib 0.124 | rucaparib 0.12 | [2] 0.199 | encorafenib 0.057 | [3] -0.05

MRPL16 (UniProt Q9NX20)
inactive: saracatinib -0.033 | sotrastaurin -0.044 | alvocidib 0.165 | Tubastatin A 0.081 | [1] -0.057 | defactinib 0.179 | rucaparib 0.175 | [2] 0.226 | encorafenib -0.053 | [3] -0.121

MRPL51 (UniProt Q4U2R6)
inactive: saracatinib -0.212 | sotrastaurin 0.015 | alvocidib 0.078 | Tubastatin A 0.033 | [1] -0.06 | defactinib 0.184 | rucaparib 0.207 | [2] 0.106 | encorafenib 0.161 | [3] -0.024

MRPL54 (UniProt Q6P161)
inactive: saracatinib 0.033 | sotrastaurin 0.07 | alvocidib 0.105 | Tubastatin A -0.112 | [1] -0.032 | defactinib 0.16 | rucaparib 0.138 | [2] -0.089 | encorafenib -0.131 | [3] 0.12

Reprinted from the results shown (2 entries):
MRPL51 (UniProt Q4U2R6)
inactive: saracatinib -0.212 | sotrastaurin 0.015 | alvocidib 0.078 | Tubastatin A 0.033 | [1] -0.06 | defactinib 0.184 | rucaparib 0.207 | [2] 0.106 | encorafenib 0.161 | [3] -0.024

MRPL54 (UniProt Q6P161)
inactive: saracatinib 0.033 | sotrastaurin 0.07 | alvocidib 0.105 | Tubastatin A -0.112 | [1] -0.032 | defactinib 0.16 | rucaparib 0.138 | [2] -0.089 | encorafenib -0.131 | [3] 0.12

Continued.

MIS18A (UniProt Q9NYP9)
inactive: saracatinib 0.017 | sotrastaurin 0.032 | alvocidib -0.056 | Tubastatin A 0.014 | [1] 0.015 | defactinib -0.1 | rucaparib -0.01 | [2] -0.037 | encorafenib 0.005 | [3] 0.033

MICAL3 (UniProt Q7RTP6)
inactive: saracatinib 0 | sotrastaurin -0.028 | alvocidib 0.118 | Tubastatin A 0.017 | [1] 0.059 | defactinib -0.077 | rucaparib 0.025 | [2] 0.012 | encorafenib 0.029 | [3] -0.011

MPG (UniProt P29372)
inactive: saracatinib -0.002 | sotrastaurin -0.015 | alvocidib 0.026 | Tubastatin A 0.029 | [1] -0.02 | defactinib 0.042 | rucaparib 0.059 | [2] 0.077 | encorafenib 0.024 | [3] 0.054

MRM3 (UniProt Q9HC36)
inactive: saracatinib -0.094 | sotrastaurin -0.01 | alvocidib 0.191 | Tubastatin A 0.201 | [1] 0.052 | defactinib 0.39 | rucaparib 0.271 | [2] 0.13 | encorafenib 0.148 | [3] -0.053

MRGBP (UniProt Q9NV56)
inactive: saracatinib 0.012 | sotrastaurin -0.087 | alvocidib -0.064 | Tubastatin A -0.056 | [1] 0.03 | defactinib -0.045 | rucaparib -0.013 | [2] 0.006 | encorafenib 0.015 | [3] 0.074

MPP6 (UniProt Q9NZW5)
inactive: saracatinib -0.004 | sotrastaurin 0.001 | alvocidib -0.066 | Tubastatin A 0.02 | [1] -0.008 | defactinib -0.055 | rucaparib 0.012 | [2] 0.022 | encorafenib 0.034 | [3] 0.013

MRPL13 (UniProt Q9BYD1)
inactive: saracatinib -0.078 | sotrastaurin -0.022 | alvocidib 0.006 | Tubastatin A 0.165 | [1] -0.041 | defactinib 0.141 | rucaparib 0.054 | [2] 0.103 | encorafenib 0.092 | [3] -0.164

MPZL1 (UniProt O95297)
inactive: saracatinib -0.013 | sotrastaurin 0.095 | alvocidib 0.037 | Tubastatin A -0.043 | [1] -0.051 | defactinib 0.003 | rucaparib 0.033 | [2] 0.027 | encorafenib -0.026 | [3] 0.027

MOB1B isoform 2 (UniProt Q7L9L4)
inactive: saracatinib 0.031 | sotrastaurin 0.018 | alvocidib -0.021 | Tubastatin A 0.01 | [1] -0.036 | defactinib 0.005 | rucaparib -0.104 | [2] -0.034 | encorafenib 0.004 | [3] 0.028

MRPL18 (UniProt Q9H0U6)
inactive: saracatinib -0.093 | sotrastaurin -0.058 | alvocidib -0.14 | Tubastatin A 0.105 | [1] 0.078 | defactinib 0.125 | rucaparib 0.166 | [2] 0.048 | encorafenib 0.051 | [3] -0.2

MICALL1 (UniProt Q8N3F8)
inactive: saracatinib -0.042 | sotrastaurin 0.029 | alvocidib -0.076 | Tubastatin A -0.05 | [1] -0.053 | defactinib -0.052 | rucaparib -0.025 | [2] -0.141 | encorafenib 0.026 | [3] 0.028

MRPL10 isoform 2 (UniProt Q7Z7H8)
inactive: saracatinib -0.216 | sotrastaurin -0.002 | alvocidib 0.119 | Tubastatin A 0.05 | [1] -0.152 | defactinib 0.092 | rucaparib 0.077 | [2] 0.168 | encorafenib 0.077 | [3] -0.025

MMUT (UniProt P22033)
inactive: saracatinib 0.023 | sotrastaurin -0.021 | alvocidib -0.036 | Tubastatin A -0.012 | [1] 0.03 | defactinib -0.072 | rucaparib -0.059 | [2] -0.072 | encorafenib 0.025 | [3] -0.009

MOCOS (UniProt Q96EN8)
inactive: saracatinib 0.091 | sotrastaurin 0.013 | alvocidib -0.186 | Tubastatin A -0.037 | [1] -0.064 | defactinib 0.028 | rucaparib 0.038 | [2] -0.063 | encorafenib -0.015 | [3] 0.024

MPV17L2 (UniProt Q567V2)
inactive: saracatinib 0.024 | sotrastaurin 0.209 | alvocidib 0.097 | Tubastatin A 0.022 | [1] -0.009 | defactinib -0.033 | rucaparib -0.001 | [2] -0.02 | encorafenib 0.012 | [3] -0.003

MMAB (UniProt Q96EY8)
inactive: saracatinib 0.029 | sotrastaurin 0.07 | alvocidib -0.006 | Tubastatin A 0.036 | [1] -0.025 | defactinib 0.019 | rucaparib -0.024 | [2] -0.035 | encorafenib -0.032 | [3] -0.06

MKKS (UniProt Q9HB66)
inactive: saracatinib 0.018 | sotrastaurin 0.045 | alvocidib 0.099 | Tubastatin A -0.032 | [1] -0.024 | defactinib 0.016 | rucaparib 0.005 | [2] 0.058 | encorafenib -0.043 | [3] 0.003

MRPL55 isoform 2 (UniProt Q7Z7F7)
inactive: saracatinib -0.02 | sotrastaurin -0.112 | alvocidib -0.015 | Tubastatin A 0.075 | [1] -0.003 | defactinib 0.124 | rucaparib 0.122 | [2] 0.112 | encorafenib 0.091 | [3] -0.05

MPLKIP (UniProt Q8TAP9)
inactive: saracatinib 0.006 | sotrastaurin 0.099 | alvocidib 0.054 | Tubastatin A -0.056 | [1] 0.18 | defactinib 0.049 | rucaparib 0.006 | [2] -0.06 | encorafenib -0.02 | [3] -0.032

MRPL41 (UniProt Q8IXM3)
inactive: saracatinib -0.128 | sotrastaurin 0.01 | alvocidib 0.136 | Tubastatin A 0.108 | [1] 0.011 | defactinib 0.174 | rucaparib 0.114 | [2] 0.108 | encorafenib 0.057 | [3] -0.092

MOGS (UniProt Q13724)
inactive: saracatinib -0.099 | sotrastaurin 0.011 | alvocidib 0.058 | Tubastatin A 0.018 | [1] 0.017 | defactinib 0.032 | rucaparib 0.069 | [2] -0.011 | encorafenib 0.044 | [3] -0.05

MPI (UniProt P34949)
inactive: saracatinib 0.028 | sotrastaurin 0.036 | alvocidib -0.028 | Tubastatin A -0.079 | [1] -0.158 | defactinib -0.049 | rucaparib 0.016 | [2] 0.04 | encorafenib 0.026 | [3] 0.155

MRPL21 (UniProt Q7Z2W9)
inactive: saracatinib -0.232 | sotrastaurin -0.182 | alvocidib 0.079 | Tubastatin A 0.109 | [1] 0.013 | defactinib 0.068 | rucaparib 0.056 | [2] 0.222 | encorafenib 0.115 | [3] -0.109

MRPL20 (UniProt Q9BYC9)
inactive: saracatinib -0.051 | sotrastaurin -0.06 | alvocidib 0.009 | Tubastatin A -0.016 | [1] 0.045 | defactinib 0.118 | rucaparib 0.158 | [2] 0.19 | encorafenib 0.045 | [3] -0.098

MRPL19 (UniProt P49406)
inactive: saracatinib -0.174 | sotrastaurin -0.119 | alvocidib 0.049 | Tubastatin A 0.048 | [1] -0.066 | defactinib 0.174 | rucaparib 0.119 | [2] 0.153 | encorafenib 0.139 | [3] -0.056

MLYCD (UniProt O95822)
inactive: saracatinib 0.056 | sotrastaurin -0.006 | alvocidib -0.058 | Tubastatin A -0.008 | [1] 0 | defactinib -0.021 | rucaparib -0.065 | [2] -0.011 | encorafenib -0.003 | [3] 0.022
